Source: patent US20180289843A1, “COATING FOR METAL NANOPARTICLES” (AGENCY FOR SCIENCE, TECHNOLOGY AND RESEARCH, priority 2015, published 2018)
Not every detail of the peptide structures is certain; ends, links or a residue may be inferred. Where a SMILES comes first, the peptide text is derived from it. [ ]: non-standard residue; d: D form. The star is where a group is joined. pS = N[C@@H](COP(=O)(O)O)C(=O)O; Thr(ol) = C[C@@H](O)[C@H](N)CO; X1 = O=C(COP(=O)(O)O)*

Assay: Normalized aggregation parameter (NAP) by UV-visible absorbance
Type: physicochemical
Settings: single ligand shell
Experimental: UV-visible spectra were recorded at room temperature using a Molecular Probes (Oregon, USA) Spectramax 384-well spectrometer, using a 1 cm path length quartz cuvette, and a fixed slit width of 2 nrn. The spectrometer was calibrated daily using the machine's ‘Auto-Calibrate’ air calibration.
To allow the comparison of results from different ligand exchange experiments, the aggregation parameter (AP) was defined as follows: […]
A460 nm and A300 nm are absorbance values of solutions of nanoparticles at 460 nm and 300 nm, respectively. The empiric wavelength of 460 nm has been chosen to reflect the aggregated state of the nanoparticles. Aref460 nm and Aref300 nm are absorbance values of water at 460 nm and 300 nm. To allow comparison of results obtained with different ligand shells, this primary aggregation parameter was then normalized by dividing the aggregation parameter values of each experiment by the initial aggregation parameter value of the same experiment before the stability test. This provides a Normalized Aggregation Parameter (NAP). […] An increase of the NAP indicates the instability and eventually aggregation of the nanoparticles.

## CC(C)[C@H](NC(=O)[C@H](COP(=O)(O)O)NC(=O)COP(=O)(O)O)C(=O)N[C@H](C(=O)N[C@H](C(=O)N[C@H](CO)[C@@H](C)O)C(C)C)C(C)C [Peptide S14, PO3H2-O-CH2-CO-Ser(PO3H2)-Val-Val-Val-Thr-ol] (X1-[pS]VVV[Thr(ol)])
Prepared using PBS and Tween 20
  NAP (normalized aggregation parameter): 1.24 ± 0.02
Prepared using water only
  NAP (normalized aggregation parameter): (1.07 ± 0.008)
